Measured values as given in the supplement of paper PMC10849652.
The list shows a part of the results.

Sequences of proteins named here, by UniProt entry; tags and fusion partners are left off. A change or cut given only in a name is not applied to a line headed by its entry.
UniProt Q9BSF4: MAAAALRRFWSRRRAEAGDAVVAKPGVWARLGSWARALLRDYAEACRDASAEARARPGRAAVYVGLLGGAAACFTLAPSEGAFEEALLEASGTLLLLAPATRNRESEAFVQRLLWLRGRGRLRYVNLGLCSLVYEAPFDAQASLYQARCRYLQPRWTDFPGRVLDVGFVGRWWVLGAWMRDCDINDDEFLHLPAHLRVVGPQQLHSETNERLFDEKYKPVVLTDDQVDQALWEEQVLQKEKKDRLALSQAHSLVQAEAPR
UniProt Q9BVK6: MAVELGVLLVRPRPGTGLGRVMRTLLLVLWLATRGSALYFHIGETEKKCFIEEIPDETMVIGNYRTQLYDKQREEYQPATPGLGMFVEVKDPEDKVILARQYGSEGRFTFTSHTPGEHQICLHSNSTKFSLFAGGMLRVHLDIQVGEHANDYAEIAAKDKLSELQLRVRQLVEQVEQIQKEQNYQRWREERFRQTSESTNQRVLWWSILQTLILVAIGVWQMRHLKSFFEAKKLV
UniProt Q9H061: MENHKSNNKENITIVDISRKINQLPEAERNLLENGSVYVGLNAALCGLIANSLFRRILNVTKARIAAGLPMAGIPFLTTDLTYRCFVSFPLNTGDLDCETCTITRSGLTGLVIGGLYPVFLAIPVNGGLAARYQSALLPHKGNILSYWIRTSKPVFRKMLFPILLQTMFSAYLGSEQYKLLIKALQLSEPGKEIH
UniProt Q8TDI8: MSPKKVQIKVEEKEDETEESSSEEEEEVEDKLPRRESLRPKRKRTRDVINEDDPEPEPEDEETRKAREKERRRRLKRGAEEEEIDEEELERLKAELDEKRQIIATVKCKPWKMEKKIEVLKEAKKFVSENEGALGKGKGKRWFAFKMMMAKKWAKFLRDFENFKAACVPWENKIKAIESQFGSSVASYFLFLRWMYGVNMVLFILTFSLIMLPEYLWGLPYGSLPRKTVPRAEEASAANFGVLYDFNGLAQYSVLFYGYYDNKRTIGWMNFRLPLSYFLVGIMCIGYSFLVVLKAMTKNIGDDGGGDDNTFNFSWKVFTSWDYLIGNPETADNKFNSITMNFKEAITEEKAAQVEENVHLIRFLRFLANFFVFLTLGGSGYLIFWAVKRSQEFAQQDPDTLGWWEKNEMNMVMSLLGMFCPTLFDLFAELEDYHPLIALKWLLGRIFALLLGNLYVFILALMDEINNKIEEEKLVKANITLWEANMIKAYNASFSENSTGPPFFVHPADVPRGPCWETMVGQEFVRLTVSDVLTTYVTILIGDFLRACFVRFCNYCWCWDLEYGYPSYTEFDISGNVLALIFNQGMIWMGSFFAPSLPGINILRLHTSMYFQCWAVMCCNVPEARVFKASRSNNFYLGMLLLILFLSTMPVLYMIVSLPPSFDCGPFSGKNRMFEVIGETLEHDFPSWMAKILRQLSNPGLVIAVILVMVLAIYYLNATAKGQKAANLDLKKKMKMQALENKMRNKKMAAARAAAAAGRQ
UniProt Q9Y2W1: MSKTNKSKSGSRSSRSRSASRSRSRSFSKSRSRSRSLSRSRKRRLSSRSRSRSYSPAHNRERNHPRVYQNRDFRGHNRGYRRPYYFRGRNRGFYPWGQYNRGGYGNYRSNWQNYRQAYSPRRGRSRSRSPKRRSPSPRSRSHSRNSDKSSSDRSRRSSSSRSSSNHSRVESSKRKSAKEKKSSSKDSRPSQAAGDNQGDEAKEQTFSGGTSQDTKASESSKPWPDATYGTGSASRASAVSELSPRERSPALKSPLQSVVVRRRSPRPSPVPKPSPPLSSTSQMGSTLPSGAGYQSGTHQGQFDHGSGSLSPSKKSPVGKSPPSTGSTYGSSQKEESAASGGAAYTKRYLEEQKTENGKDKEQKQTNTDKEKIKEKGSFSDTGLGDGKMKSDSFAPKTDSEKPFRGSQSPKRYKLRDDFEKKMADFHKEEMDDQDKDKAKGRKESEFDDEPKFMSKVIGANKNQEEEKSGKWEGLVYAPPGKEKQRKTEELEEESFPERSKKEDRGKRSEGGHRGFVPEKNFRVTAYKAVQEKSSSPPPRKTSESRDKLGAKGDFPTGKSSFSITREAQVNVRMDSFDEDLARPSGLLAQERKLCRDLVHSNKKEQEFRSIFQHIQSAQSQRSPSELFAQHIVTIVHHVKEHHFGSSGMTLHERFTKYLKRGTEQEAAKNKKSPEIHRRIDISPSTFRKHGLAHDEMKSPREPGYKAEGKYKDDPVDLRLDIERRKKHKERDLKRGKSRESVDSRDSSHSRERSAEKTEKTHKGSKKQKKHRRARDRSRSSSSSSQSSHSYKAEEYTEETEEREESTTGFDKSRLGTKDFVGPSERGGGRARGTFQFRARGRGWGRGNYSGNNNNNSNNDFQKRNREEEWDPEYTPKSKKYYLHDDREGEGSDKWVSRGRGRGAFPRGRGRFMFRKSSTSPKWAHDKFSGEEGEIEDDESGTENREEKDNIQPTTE
UniProt Q9BVC6: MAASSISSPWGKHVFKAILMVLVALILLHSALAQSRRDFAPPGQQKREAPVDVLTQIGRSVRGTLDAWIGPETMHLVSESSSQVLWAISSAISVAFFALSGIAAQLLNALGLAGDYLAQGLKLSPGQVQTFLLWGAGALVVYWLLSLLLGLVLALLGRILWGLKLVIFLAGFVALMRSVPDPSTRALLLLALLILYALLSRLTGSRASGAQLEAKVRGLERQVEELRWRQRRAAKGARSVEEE
UniProt Q9Y584: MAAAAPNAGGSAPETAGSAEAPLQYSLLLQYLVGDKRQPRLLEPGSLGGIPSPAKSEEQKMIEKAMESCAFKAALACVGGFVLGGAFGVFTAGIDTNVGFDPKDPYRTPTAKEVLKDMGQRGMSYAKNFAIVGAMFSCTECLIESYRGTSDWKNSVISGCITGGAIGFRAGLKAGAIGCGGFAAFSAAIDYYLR
UniProt Q9P2C4: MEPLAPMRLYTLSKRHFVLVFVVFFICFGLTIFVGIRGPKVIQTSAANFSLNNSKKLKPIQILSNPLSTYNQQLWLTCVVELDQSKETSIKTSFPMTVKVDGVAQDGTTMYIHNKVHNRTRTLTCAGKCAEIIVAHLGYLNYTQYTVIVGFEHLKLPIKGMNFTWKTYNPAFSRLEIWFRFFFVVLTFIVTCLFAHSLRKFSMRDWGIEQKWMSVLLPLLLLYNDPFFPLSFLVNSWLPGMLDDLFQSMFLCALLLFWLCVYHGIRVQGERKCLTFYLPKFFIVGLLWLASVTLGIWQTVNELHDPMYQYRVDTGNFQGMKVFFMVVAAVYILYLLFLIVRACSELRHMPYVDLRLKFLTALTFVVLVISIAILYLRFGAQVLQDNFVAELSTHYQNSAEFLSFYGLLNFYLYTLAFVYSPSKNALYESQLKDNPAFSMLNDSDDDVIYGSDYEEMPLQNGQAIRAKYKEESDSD
UniProt P17152: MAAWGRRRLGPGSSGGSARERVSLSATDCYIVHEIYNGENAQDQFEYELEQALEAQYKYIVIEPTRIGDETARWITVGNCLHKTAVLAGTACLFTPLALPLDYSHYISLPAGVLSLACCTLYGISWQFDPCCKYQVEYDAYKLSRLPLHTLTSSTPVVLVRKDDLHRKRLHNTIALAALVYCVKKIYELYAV
UniProt Q96I45: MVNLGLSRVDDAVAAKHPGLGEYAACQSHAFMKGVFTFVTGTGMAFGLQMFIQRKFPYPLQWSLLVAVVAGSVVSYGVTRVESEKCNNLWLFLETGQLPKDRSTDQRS
UniProt Q969X1: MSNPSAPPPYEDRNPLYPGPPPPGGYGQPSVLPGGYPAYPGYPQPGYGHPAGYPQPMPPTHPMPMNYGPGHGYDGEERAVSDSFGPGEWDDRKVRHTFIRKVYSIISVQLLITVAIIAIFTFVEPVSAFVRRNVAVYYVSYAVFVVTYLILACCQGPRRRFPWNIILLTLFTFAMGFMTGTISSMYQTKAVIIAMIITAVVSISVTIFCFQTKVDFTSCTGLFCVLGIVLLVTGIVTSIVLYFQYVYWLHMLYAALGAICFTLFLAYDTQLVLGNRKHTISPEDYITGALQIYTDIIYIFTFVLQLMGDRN
UniProt Q9P0S9: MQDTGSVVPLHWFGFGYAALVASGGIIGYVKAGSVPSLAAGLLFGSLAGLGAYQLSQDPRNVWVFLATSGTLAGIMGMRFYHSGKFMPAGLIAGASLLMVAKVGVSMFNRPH
UniProt A0PK00: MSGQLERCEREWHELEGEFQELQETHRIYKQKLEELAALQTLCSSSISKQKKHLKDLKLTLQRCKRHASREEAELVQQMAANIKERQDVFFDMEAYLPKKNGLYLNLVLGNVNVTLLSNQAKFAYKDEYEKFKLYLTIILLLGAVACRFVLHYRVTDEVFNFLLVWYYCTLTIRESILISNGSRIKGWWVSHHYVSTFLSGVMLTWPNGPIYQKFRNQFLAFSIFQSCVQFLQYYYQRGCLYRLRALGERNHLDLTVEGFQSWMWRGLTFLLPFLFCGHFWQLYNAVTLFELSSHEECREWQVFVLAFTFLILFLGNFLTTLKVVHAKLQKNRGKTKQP
UniProt Q96RS0: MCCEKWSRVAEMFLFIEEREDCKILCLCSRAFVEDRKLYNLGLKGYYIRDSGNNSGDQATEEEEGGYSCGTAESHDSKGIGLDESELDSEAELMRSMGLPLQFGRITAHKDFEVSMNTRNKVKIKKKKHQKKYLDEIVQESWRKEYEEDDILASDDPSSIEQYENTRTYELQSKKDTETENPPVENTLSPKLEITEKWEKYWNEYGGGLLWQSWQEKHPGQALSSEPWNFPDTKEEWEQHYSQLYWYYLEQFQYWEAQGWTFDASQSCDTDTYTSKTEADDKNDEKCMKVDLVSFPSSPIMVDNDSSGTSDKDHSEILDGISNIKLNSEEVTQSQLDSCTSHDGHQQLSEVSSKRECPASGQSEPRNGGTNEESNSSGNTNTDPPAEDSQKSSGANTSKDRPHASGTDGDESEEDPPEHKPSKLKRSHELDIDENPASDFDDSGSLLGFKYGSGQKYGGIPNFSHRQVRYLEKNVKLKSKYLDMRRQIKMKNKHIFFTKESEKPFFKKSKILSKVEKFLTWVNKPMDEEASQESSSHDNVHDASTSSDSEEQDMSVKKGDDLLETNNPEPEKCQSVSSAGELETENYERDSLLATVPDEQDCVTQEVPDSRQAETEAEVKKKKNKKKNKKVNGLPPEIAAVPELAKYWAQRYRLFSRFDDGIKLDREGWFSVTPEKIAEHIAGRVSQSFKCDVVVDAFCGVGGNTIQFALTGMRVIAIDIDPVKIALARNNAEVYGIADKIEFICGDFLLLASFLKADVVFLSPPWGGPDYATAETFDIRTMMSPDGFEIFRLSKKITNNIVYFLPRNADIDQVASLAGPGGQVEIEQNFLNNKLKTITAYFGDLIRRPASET
UniProt O60830: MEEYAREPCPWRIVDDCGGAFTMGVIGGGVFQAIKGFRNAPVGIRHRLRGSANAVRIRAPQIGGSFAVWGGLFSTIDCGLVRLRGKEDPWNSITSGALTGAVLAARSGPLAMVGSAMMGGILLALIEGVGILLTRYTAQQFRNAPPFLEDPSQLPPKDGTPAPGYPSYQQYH
UniProt O43493: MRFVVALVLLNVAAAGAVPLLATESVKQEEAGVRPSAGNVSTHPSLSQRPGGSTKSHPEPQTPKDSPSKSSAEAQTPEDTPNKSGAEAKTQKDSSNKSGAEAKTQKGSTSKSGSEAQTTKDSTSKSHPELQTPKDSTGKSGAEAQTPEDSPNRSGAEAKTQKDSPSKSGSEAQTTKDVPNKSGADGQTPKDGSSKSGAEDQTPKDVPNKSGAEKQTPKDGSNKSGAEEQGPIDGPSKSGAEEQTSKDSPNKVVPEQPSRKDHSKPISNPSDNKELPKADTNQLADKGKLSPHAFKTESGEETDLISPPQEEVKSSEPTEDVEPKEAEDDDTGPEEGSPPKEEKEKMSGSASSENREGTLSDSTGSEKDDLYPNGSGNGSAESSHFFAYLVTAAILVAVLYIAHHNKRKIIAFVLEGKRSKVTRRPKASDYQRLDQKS
UniProt Q9H0V1: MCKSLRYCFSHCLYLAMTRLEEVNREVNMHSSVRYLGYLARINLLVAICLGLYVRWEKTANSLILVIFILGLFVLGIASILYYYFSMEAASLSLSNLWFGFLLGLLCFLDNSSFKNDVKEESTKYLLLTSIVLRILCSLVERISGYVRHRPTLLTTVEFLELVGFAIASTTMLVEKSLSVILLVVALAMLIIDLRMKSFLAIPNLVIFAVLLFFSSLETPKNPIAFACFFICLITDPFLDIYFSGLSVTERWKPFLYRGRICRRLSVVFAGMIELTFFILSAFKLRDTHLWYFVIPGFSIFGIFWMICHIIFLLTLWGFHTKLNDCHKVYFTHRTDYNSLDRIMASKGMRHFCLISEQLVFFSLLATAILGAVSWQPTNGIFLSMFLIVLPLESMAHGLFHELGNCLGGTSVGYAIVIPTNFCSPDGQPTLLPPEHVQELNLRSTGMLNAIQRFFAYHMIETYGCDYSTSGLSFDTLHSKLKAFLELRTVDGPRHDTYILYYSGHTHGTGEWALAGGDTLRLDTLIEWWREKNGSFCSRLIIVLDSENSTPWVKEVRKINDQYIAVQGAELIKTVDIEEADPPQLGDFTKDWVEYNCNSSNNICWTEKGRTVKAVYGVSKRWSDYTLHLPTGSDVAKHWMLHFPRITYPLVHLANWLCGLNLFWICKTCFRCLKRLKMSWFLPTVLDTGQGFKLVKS

How the values were obtained:
Experiment in all cases: log2 fold change, soluble protein after heating vs DMSO (PISA); higher = thermal stabilisation; K562 lysate, 10 uM; active = over 0.2 and 3.5 SD of the protein, either way, in both replicates (recomputed)
[1] = compound: NCC(=O)Nc1ccc(-n2nc(C(F)(F)F)cc2-c2ccc3c(ccc4ccccc43)c2)cc1
How it was run: (§1)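 Following dounce homogenisation of K562 pellets in PBS pH 7.4 with 1 mM MgCl2, crude extract at 1 mg/mL protein was incubated for 30 min with 10 μM compound. Aliquots were then heated for 3 min over 48°C-58°C and pooled, NP-40 was added to 0.5% at 4°C, and soluble protein was recovered as the supernatant at 21,000xg for 90 min. Channel-sum-equalised TMTpro 16plex LC-MS/MS quantified this protein. Each value, from duplicates, is a log-two fold change in thermal stability relative to solvent controls.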

[2] = compound: O=C(CCCCCCC(=O)Nc1ccccc1)NO [vorinostat]
How it was run: as §1

[3] = compound: O=C(O)c1ccc2c(c1)nc(Nc1cccc(Cl)c1)c1ccncc12 [silmitasertib]
How it was run: as §1

[4] = compound: O=C1NC(=O)C(c2cnc3ccccn23)=C1c1cn2c3c(cc(F)cc13)CN(C(=O)N1CCCCC1)CC2
How it was run: as §1

[5] = compound: c1cn2cc(-c3ccc4cn[nH]c4c3)nc(Nc3ccc(N4CCOCC4)cc3)c2n1 [entospletinib]
How it was run: as §1

Target | log2 fold change [1] | log2 fold change [2] | log2 fold change [3] | log2 fold change [4] | log2 fold change [5]
TIMM29 (UniProt Q9BSF4) | inactive: 0 | inactive: -0.023 | inactive: -0.012 | inactive: -0.065 | inactive: 0.07
THTPA (UniProt Q9BU02) | inactive: -0.05 | inactive: 0.039 | inactive: 0.007 | inactive: -0.039 | inactive: -0.025
TMCO1 (UniProt Q9UM00) | inactive: -0.05 | inactive: 0.131 | inactive: 0.019 | inactive: -0.014 | inactive: 0.038
TMED9 (UniProt Q9BVK6) | inactive: -0.029 | inactive: 0.09 | inactive: 0.006 | inactive: 0.016 | inactive: -0.073
THUMPD3 (UniProt Q9BV44) | inactive: 0.018 | inactive: -0.069 | inactive: -0.013 | inactive: 0.025 | inactive: 0.023
TK1 (UniProt K7ERV3) | inactive: -0.018 | inactive: 0.086 | inactive: 0.01 | inactive: -0.014 | inactive: -0.013
TMEM126A (UniProt Q9H061) | inactive: -0.006 | inactive: 0.041 | inactive: 0.02 | inactive: 0.07 | inactive: -0.003
TMED10 (UniProt P49755) | inactive: -0.034 | inactive: 0.138 | inactive: -0.012 | inactive: 0.018 | inactive: -0.005
THADA (UniProt Q6YHU6) | inactive: 0.009 | active: -0.456 | inactive: 0.013 | inactive: 0.015 | inactive: 0.006
THUMPD2 (UniProt Q9BTF0) | inactive: -0.01 | inactive: -0.084 | inactive: 0.006 | inactive: -0.025 | inactive: -0.015
TMEM135 (UniProt Q86UB9) | inactive: 0.022 | inactive: -0.031 | inactive: 0.022 | inactive: -0.018 | inactive: -0.021
TMC1 (UniProt Q8TDI8) | inactive: 0.015 | inactive: -0.121 | inactive: 0.02 | inactive: -0.337 | inactive: 0.012
THRAP3 (UniProt Q9Y2W1) | inactive: 0.037 | inactive: 0.059 | inactive: -0.04 | inactive: -0.024 | inactive: -0.031
TMEM183B (UniProt Q1AE95) | inactive: -0.138 | – | – | – | –
THOC3 (UniProt Q96J01) | inactive: 0.033 | inactive: -0.185 | inactive: 0.031 | inactive: -0.017 | inactive: -0.008
TKFC (UniProt Q3LXA3) | inactive: 0.004 | inactive: 0.06 | inactive: 0.009 | inactive: 0.01 | inactive: 0.04
TMEM179B (UniProt Q7Z7N9) | inactive: 0.015 | inactive: 0.115 | inactive: -0.086 | inactive: 0.28 | inactive: -0.105
TMEM167A (UniProt Q8TBQ9) | inactive: -0.119 | inactive: -0.077 | inactive: -0.01 | inactive: 0.037 | inactive: 0.126
TMEM109 (UniProt Q9BVC6) | inactive: -0.022 | inactive: 0.118 | inactive: -0.009 | inactive: 0.028 | inactive: -0.003
TMED5 (UniProt Q9Y3A6) | inactive: -0.043 | inactive: 0.073 | inactive: -0.017 | inactive: 0.016 | inactive: -0.021
TIMM10B (UniProt Q9Y5J6) | inactive: -0.138 | inactive: 0.033 | inactive: 0.08 | inactive: 0.034 | –
TM9SF1 (UniProt O15321) | inactive: -0.038 | inactive: 0.14 | inactive: -0.042 | inactive: -0.053 | inactive: -0.053
TJP1 (UniProt G3V1L9) | inactive: -0.044 | active: -0.484 | inactive: -0.061 | inactive: 0.127 | –
TIMM22 (UniProt Q9Y584) | inactive: -0.034 | inactive: 0.123 | inactive: -0.071 | inactive: -0.005 | inactive: -0.001
TMEM161B (UniProt Q8NDZ6) | inactive: -0.084 | inactive: 0.225 | inactive: 0 | inactive: 0.019 | inactive: -0.026
TMEM126B (UniProt Q8IUX1) | inactive: 0.112 | inactive: 0.04 | inactive: -0.009 | inactive: -0.094 | inactive: -0.025
TIMM8B (UniProt Q9Y5J9) | inactive: -0.001 | inactive: -0.164 | inactive: 0.046 | inactive: -0.031 | inactive: -0.126

Target | log2 fold change [1] | log2 fold change [2] | log2 fold change [3] | log2 fold change [4] | log2 fold change [5]
TMEM181 (UniProt Q9P2C4) | inactive: -0.271 | inactive: 0.128 | inactive: 0.015 | inactive: -0.079 | inactive: -0.025
TMEM11 (UniProt P17152) | inactive: -0.011 | inactive: -0.067 | inactive: 0.083 | inactive: 0.077 | inactive: 0.055
TMED4 (UniProt Q7Z7H5) | inactive: -0.051 | inactive: 0.151 | inactive: -0.029 | inactive: 0.019 | inactive: 0.003
TIPRL (UniProt O75663) | inactive: -0.021 | inactive: -0.045 | inactive: 0.009 | inactive: 0.01 | inactive: 0
TM9SF4 (UniProt Q92544) | inactive: 0.038 | inactive: 0.16 | inactive: 0.066 | inactive: -0.037 | inactive: -0.048
TIMM44 (UniProt O43615) | inactive: 0.045 | active: 0.245 | inactive: 0.015 | inactive: 0.029 | inactive: -0.026
TMEM141 (UniProt Q96I45) | inactive: -0.12 | inactive: 0.172 | inactive: -0.019 | inactive: 0.118 | –
TM9SF3 (UniProt Q9HD45) | inactive: -0.013 | inactive: 0.108 | inactive: 0.01 | inactive: 0.012 | inactive: -0.018
TMA16 (UniProt Q96EY4) | inactive: -0.021 | inactive: -0.253 | inactive: 0.026 | inactive: -0.014 | inactive: 0.002
TMC6 (UniProt Q7Z403) | inactive: 0.041 | inactive: 0.058 | inactive: -0.121 | inactive: -0.056 | –
TMBIM1 (UniProt Q969X1) | inactive: -0.083 | inactive: 0.083 | inactive: -0.022 | inactive: -0.07 | inactive: 0.086
TLK2 isoform 2 (UniProt Q86UE8) | inactive: 0.019 | inactive: -0.24 | inactive: 0.057 | inactive: 0.118 | inactive: -0.135
TMEM14C (UniProt Q9P0S9) | inactive: -0.032 | inactive: -0.018 | inactive: 0.013 | inactive: 0.058 | inactive: 0.091
TMEM120B (UniProt A0PK00) | inactive: -0.093 | inactive: -0.008 | inactive: 0.155 | inactive: 0.078 | inactive: -0.129
TIMM21 (UniProt Q9BVV7) | inactive: -0.035 | inactive: -0.131 | inactive: -0.039 | inactive: -0.042 | inactive: -0.009
TGS1 (UniProt Q96RS0) | inactive: -0.035 | inactive: -0.119 | inactive: 0.033 | inactive: -0.015 | inactive: 0.011
TIMP1 (UniProt P01033) | inactive: 0.015 | inactive: 0.126 | inactive: 0.015 | inactive: 0.015 | inactive: -0.021
TIMM17B (UniProt O60830) | inactive: 0.053 | inactive: -0.197 | inactive: 0.091 | inactive: -0.021 | inactive: -0.03
THG1L (UniProt Q9NWX6) | inactive: 0.027 | inactive: -0.027 | inactive: 0.013 | inactive: 0.039 | inactive: 0.003
TMEM164 (UniProt Q5U3C3) | inactive: 0.098 | inactive: 0.463 | inactive: -0.079 | inactive: 0.274 | inactive: 0.059
TGOLN2 isoform 7 (UniProt O43493) | inactive: -0.02 | inactive: 0.089 | inactive: 0.055 | inactive: -0.047 | inactive: -0.019
THUMPD1 (UniProt Q9NXG2) | inactive: -0.026 | inactive: 0.114 | inactive: -0.007 | inactive: -0.043 | inactive: -0.01
TMED2 (UniProt Q15363) | inactive: -0.039 | inactive: 0.112 | inactive: -0.028 | inactive: -0.043 | inactive: -0.027
TM6SF1 (UniProt Q9BZW5) | inactive: -0.083 | inactive: 0.215 | inactive: -0.032 | inactive: -0.043 | inactive: -0.08
TKT isoform 2 (UniProt P29401) | inactive: 0.004 | inactive: 0.133 | inactive: 0.001 | inactive: 0 | inactive: 0.019
TICAM2 isoform 2 (UniProt Q86XR7) | inactive: -0.018 | inactive: 0.087 | inactive: -0.017 | inactive: -0.047 | inactive: 0.003
TMEM168 (UniProt Q9H0V1) | inactive: -0.068 | inactive: 0.079 | inactive: 0.013 | inactive: -0.035 | inactive: -0.213

9 entries from above, as tab-separated lines.
Target	log2 fold change [1]	log2 fold change [2]	log2 fold change [3]	log2 fold change [4]	log2 fold change [5]
TMEM181 (UniProt Q9P2C4)	inactive: -0.271	inactive: 0.128	inactive: 0.015	inactive: -0.079	inactive: -0.025
TIMM44 (UniProt O43615)	inactive: 0.045	active: 0.245	inactive: 0.015	inactive: 0.029	inactive: -0.026
TLK2 isoform 2 (UniProt Q86UE8)	inactive: 0.019	inactive: -0.24	inactive: 0.057	inactive: 0.118	inactive: -0.135
TMEM14C (UniProt Q9P0S9)	inactive: -0.032	inactive: -0.018	inactive: 0.013	inactive: 0.058	inactive: 0.091
TIMM17B (UniProt O60830)	inactive: 0.053	inactive: -0.197	inactive: 0.091	inactive: -0.021	inactive: -0.03
THG1L (UniProt Q9NWX6)	inactive: 0.027	inactive: -0.027	inactive: 0.013	inactive: 0.039	inactive: 0.003
TMEM164 (UniProt Q5U3C3)	inactive: 0.098	inactive: 0.463	inactive: -0.079	inactive: 0.274	inactive: 0.059
TGOLN2 isoform 7 (UniProt O43493)	inactive: -0.02	inactive: 0.089	inactive: 0.055	inactive: -0.047	inactive: -0.019
TMEM168 (UniProt Q9H0V1)	inactive: -0.068	inactive: 0.079	inactive: 0.013	inactive: -0.035	inactive: -0.213
